In paper PMC11264956 one finds binding data, which are given here for two substances.

Experiment [1] has as its target T1, testes-specific protease 50 (TSP50), endogenous (human (endogenous in MCF7 and MDA-MB-231)) (UniProt Q9UI38).
T1 sequence: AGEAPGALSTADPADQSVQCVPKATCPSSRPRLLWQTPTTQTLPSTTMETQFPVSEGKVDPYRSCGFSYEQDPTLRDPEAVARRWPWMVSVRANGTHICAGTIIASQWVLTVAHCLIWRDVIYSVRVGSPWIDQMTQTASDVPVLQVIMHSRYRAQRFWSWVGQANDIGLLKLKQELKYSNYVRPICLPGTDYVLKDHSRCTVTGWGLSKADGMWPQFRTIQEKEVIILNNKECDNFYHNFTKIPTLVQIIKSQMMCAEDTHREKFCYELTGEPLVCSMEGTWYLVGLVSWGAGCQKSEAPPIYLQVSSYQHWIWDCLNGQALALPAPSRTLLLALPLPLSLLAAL
The experiment in a line: co-IP; IP with anti-TSP50 antibody on protein A/G magnetic beads from MCF7 and MDA-MB-231 cells; Western blot with anti-AKT, anti-p85α or anti-p110α. On the technique in general: A western blot detects proteins with antibodies after separation by electrophoresis.

The target of another experiment is T2, Flag-TSP50 wild type (UniProt Q9UI38).
T2 sequence: T1 sequence
In words: co-IP; Myc-tagged p110α domain plasmids co-transfected with Flag-TSP50 plasmid into MDA-MB-231 cells; precipitating antibody not stated for this panel.

These are yes or no findings as the source states them, for the method shown. Binding seen in cells or lysates may run through a third protein. For some assays here: A result given as binding can be weak or reduced; the word gives no strength. For some assays here: Where a sequence is shown, tags or fusion partners need not be part of it.

As for AKT, endogenous (enzyme), the binding result in experiment [1] was “no binding”. Consider “Myc-tagged p85 binding domain (p85BD) of p110α (domain or fragment)”, for which, in the experiment with Flag-TSP50 wild type, the binding entry was “binds”.
